# No constants are given. Whether binding was seen depends on the method and setting. A result given as binding can be weak or reduced; the word gives no strength.
# B1: Caronte (from Gallus gallus), R&D Systems (ligand)
# chain: QPDSQQRKRRPLQHLFYLDRNLLESQSFHELVGENPVGVKETQEEPSFFIAFPQTAGESQKQGEKKMSRFILPNAELYAHQDLRTWAAPKEISPVENFSPSYYSNKRDVEPPYRKDAKKFWDHFMLRKNSASEEVVLPIKTNEMHQETCRTLPFSQSVAHESCEKVIVQNNLCFGKCSSFHVPGPDDRLYTFCSKCLPTKFSMKHLDLNCTSSVPVVKKVMIVEECNCETQKIEDPLLGSRQSDFLGNLPEHN
# Target: GDF-11 (Homo sapiens (Human))
# Experiment: SPR (BiaCore); GDF-11 amine-coupled on CM5 chip, Caronte injected at 200 ug/ml
binder,measurement,value
B1,binding,binds
